# In patent US20220057378A1, “MICROBIAL MI[…]” (priority 2015, published 2022):
# System: GFP sensor strains
# Test: SVM classification of GFP sensor responses (toxin / no toxin)
# Assay type: cell-based
# Excerpt: Computational models to determine the threshold of detection for specific sensors based on models of experimental GFP responses. We used machine learning techniques to determine the relationships between the GFP output signal and the presence of a toxin. We have created a database containing the collected sensor response data. We have quantified the GFP threshold of detection for each sensor construct. We have constructed Receiver Operating Characteristic (ROC) curves for each sensor to achieve robust sensing. We constructed machine learning models capable of inferring the relationships between the GFP sensor responses and the presence or absence of a toxin at a given concentration. The algorithm learns these relationships from a set of training samples (GFP sensor responses) defined by the set of experimental conditions from which they were generated. The aim of the algorithm is to provide a general method capable of determining the experimental conditions associated with GFP sensor responses through the use of historical data. Specifically, we have built classification models based on Support Vector Machines (SVMs), which is one of the most popular classifiers due to its excellent performance in many contexts and its solid mathematical basis (1). For each toxin and concentration, we solved a binary classification problem in which the positive class represents the presence of the toxin in water and the negative class is associated with clean environments. Patterns were constructed with features containing GFP sensor responses at various timestamps to capture the temporal dynamics of the GFP signal. The optimal meta-parameters of the SVM classifier were determined by applying a 5-crossvalidation during the training phase (2). In order to have a reliable estimate of the performance of the model when deployed in real environments, we measured its performance over a set of samples (test patterns) not seen during the training phase. The SVM's performance was determined by the percentage of test samples correctly labeled as toxin/no toxin (classification accuracy). 80% of samples were used for training the SVM models and the remaining 20% of samples was used to evaluate their effectiveness. We generated 20 random training/test partitions to have an estimate of performance independent of the data partition.
# Specifically, we have built classification models based on Support Vector Machines (SVMs), which is one of the most popular classifiers due to its excellent performance in many contexts and its solid mathematical basis. For each toxin and concentration, we solved a binary classification problem in which the positive class represents the presence of the toxin in water and the negative class is associated with clean environments. Patterns were constructed with features containing GFP sensor responses at various timestamps to capture the temporal dynamics of the GFP signal. The optimal meta-parameters of the SVM classifier were determined by applying a 5-crossvalidation during the training phase.
# In order to have a reliable estimate of the performance of the model when deployed in real environments, we measured its performance over a set of samples (test patterns) not seen during the training phase. The SVM's performance was determined by the percentage of test samples correctly labeled as toxin/no toxin (classification accuracy). 80% of samples were used for training the SVM models and the remaining 20% of samples was used to evaluate their effectiveness. We generated 20 random training/test partitions based on data collected in single-strain chips (no crosstalk data) to have an estimate of performance.
molecule,measurement,setting,value
[Cd] [Cadmium],Classification accuracy,toxin conc. 0.022 μM,65.00%
same,Classification accuracy,toxin conc. 0.044 μM,54.16%
same,Classification accuracy,toxin conc. 0.44 μM,90.00%
[Cr+6] [Chromium(VI)],Classification accuracy,toxin conc. 1.25 μM,96.67%
same,Classification accuracy,toxin conc. 2.5 μM,97.50%
same,Classification accuracy,toxin conc. 5 μM,94.17%
[Cu] [Copper],Classification accuracy,toxin conc. 5 μM,95.00%
same,Classification accuracy,toxin conc. 10 μM,96.67%
same,Classification accuracy,toxin conc. 20 μM,95.00%
[Pb] [Lead],Classification accuracy,toxin conc. 1.8 μM,95.83%
same,Classification accuracy,toxin conc. 3.6 μM,95.00%
same,Classification accuracy,toxin conc. 7.2 μM,95.00%
"CCOC(=O)CC(SP(=S)(OC)OC)C(=O)OCC (stereo not drawn) [Malathion, malathion]",Classification accuracy,toxin conc. 145 mg/L,89.17%
Ammonium,Classification accuracy,toxin conc. 1 ppm,71.05%
same,Classification accuracy,toxin conc. 5 ppm,91.79%
